Measurements from “University of Dundee, Small-Polar-MMV Screening Library” (2021), ChEMBL document CHEMBL3988442.

Chains of the proteins cited; added tags and fusions are not shown.
UniProt I6X8D2, whole entry: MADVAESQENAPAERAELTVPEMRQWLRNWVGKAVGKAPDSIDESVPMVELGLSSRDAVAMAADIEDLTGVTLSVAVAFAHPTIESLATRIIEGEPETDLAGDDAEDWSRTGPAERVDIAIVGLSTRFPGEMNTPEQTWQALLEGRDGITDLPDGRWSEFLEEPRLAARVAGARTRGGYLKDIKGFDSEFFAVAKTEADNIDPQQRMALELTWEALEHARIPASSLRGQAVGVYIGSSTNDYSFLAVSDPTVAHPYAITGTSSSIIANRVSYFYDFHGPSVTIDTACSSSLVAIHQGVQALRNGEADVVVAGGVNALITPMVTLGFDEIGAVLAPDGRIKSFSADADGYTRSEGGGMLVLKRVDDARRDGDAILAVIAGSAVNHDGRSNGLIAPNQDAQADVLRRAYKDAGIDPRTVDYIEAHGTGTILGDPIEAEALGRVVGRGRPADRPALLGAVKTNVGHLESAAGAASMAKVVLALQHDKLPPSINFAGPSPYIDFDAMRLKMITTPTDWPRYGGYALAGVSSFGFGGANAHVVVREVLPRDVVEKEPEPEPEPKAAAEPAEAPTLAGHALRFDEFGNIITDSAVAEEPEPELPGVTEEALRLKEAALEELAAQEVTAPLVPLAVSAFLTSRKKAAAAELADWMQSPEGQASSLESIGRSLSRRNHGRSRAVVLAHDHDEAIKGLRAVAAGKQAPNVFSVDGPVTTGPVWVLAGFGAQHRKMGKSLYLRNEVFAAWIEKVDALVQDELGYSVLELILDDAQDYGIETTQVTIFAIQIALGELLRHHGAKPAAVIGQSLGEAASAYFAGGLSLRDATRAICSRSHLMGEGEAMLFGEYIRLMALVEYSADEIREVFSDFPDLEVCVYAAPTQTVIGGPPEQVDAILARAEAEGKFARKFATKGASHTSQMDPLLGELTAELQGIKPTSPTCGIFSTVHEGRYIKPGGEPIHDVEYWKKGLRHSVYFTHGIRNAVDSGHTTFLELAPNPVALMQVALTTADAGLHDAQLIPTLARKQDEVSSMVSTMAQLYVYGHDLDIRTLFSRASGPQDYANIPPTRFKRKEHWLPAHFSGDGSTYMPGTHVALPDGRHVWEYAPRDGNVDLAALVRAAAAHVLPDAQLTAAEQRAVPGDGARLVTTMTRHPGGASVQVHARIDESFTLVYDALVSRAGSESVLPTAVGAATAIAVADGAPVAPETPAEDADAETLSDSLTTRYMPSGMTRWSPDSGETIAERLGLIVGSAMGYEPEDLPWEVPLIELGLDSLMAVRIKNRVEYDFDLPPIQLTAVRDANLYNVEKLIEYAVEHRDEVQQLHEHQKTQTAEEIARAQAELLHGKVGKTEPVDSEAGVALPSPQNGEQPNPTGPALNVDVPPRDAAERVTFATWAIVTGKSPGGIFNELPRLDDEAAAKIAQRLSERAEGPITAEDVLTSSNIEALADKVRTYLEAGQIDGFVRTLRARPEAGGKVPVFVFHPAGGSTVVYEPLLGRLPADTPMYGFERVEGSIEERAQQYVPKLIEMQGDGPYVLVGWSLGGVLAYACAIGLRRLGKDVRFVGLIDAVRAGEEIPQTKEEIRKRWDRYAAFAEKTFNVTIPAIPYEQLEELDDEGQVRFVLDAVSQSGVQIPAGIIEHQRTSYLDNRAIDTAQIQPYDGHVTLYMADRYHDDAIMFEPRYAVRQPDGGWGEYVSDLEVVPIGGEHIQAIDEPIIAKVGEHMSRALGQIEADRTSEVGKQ

A: 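Assay of Toxoplasma gondii numbers, read through their beta-galactosidase reporter with a colour substrate. Compounds at 10 µM. Higher reads as fewer parasites (inferred from which compounds were picked for retests). Size under these conditions: about 67,000 compounds, about 260 of them at 50% or above in at least one test.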
B: 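Polyketide synthase Pks13, Mycobacterium tuberculosis (UniProt I6X8D2). Enzyme assay of the thioesterase domain of polyketide synthase 13; the read-out is not stated. Compounds at 30 µM. The record gives no direction; the compounds picked for IC50 retests had high values, so higher reads as stronger inhibition. Of about 67,000 compounds tested this way, about 300 (0.46%) reached 50% or more in at least one test.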

Results are given as percent effect.
The record does not define 0% and 100%; most values in the screen are far below 50% and negative numbers occur (in some assays of this library far below -100).
This is an unselected part of the compounds tested.
A dash means the value is not listed here; it may have been measured.

| # | Compound | A | B |
|---|---|---|---|
| 1 | `Cc1nnc([C@@H]2CC[C@@H]3[C@@H](CCN3S(=O)(=O)c3cccnc3)O2)o1` | - | -18.5 |
| 2 | `[H][C@@]12CCCN1CCCN(Cc1cc3cccc(C)c3[nH]c1=O)C2` | -11.14 | - |
| 3 | `O=C1CC[C@H]2[C@H](CCN2c2ccccn2)N1CC1CCOCC1` | - | -8.504 |
| 4 | `CN(C)C(=O)N[C@@H]1CN(S(C)(=O)=O)[C@@H]2CCCO[C@@H]21` | - | -4.568 |
| 5 | `Cc1ccoc1C(=O)N1C[C@H](OCC2CC2)[C@H]2OCCC[C@H]21` | - | 13.29 |
| 6 | `CCOC(=O)N1CCN(c2nc(NC3CC3)c3ccccc3n2)CC1.Cl` | -17.67 | - |
| 7 | `c1cncc(COC2COC3(CCN(c4cnccn4)CC3)C2)c1` (stereo not given) | - | -38.89 |
| 8 | `Cc1cc(N2CCC(n3cc(CN4CCSCC4)nn3)CC2)ccn1` | 4.619 | 5.962 |
| 9 | `O=c1cc(CN(CCO)C2CC2)nc2ccccn12` | -2.105 | 2.594 |
| 10 | `O=C(NCc1cnn2ccccc12)NC1CCCC1` | 3.548 | -9.818 |
| 11 | `CCN1CCN(c2ccc(CNC(=O)Cc3c(C)noc3C)cn2)CC1` | 16.14 | 1.058 |
| 12 | `CCOc1ccc(Cl)cc1CCNC(=O)Cn1ccccc1=O` | 10.23 | 0.3133 |
| 13 | `O=C(CN1CCOCC1CC(=O)c1ccco1)NCc1ccccn1` (stereo not given) | 8.151 | -0.3355 |
| 14 | `COc1nc2c(cc1C(=O)N1CCCC1c1ccccn1)CCC2` (stereo not given) | 3.376 | 2.194 |
| 15 | `CCc1nnsc1C(=O)NC1CCN(CCOc2ccc(Br)cc2)CC1` | -3.656 | -5.956 |
| 16 | `Cc1noc(C)c1CN1C[C@@H](OCC(=O)N(C)C)[C@H]2OCCC[C@H]21` | - | -22.35 |
| 17 | `CCCNS(=O)(=O)c1ccc(C(=O)NC(CC)c2cnn(C)c2)cc1` (stereo not given) | 2.021 | -22.39 |
| 18 | `Cc1nc(CNC(=O)Nc2cc(F)ccc2OC(F)F)no1` | -4.681 | -30.31 |
| 19 | `Cn1cc(N2CC3(CCN(S(=O)(=O)C4CC4)C3)CC2=O)cn1` (stereo not given) | 2.457 | - |
| 20 | `Cl.Cn1cc([C@@H]2CN(S(C)(=O)=O)C[C@H]2N)c2ccncc21` | -38.61 | - |
| 21 | `Cn1ncc(C(=O)O)c1C(=O)Nc1nc2ccccc2s1` | 21.65 | 1.884 |
| 22 | `Cc1c(C(=O)NCCN2C(=O)CCC2=O)sc2ccc(F)cc12` | 7.674 | 1.108 |
| 23 | `c1cc(COC[C@]23COC[C@H]2CN(CC2CCC2)C3)ccn1` | - | -14.37 |
| 24 | `Cc1ccc(NC(=O)CCc2ccco2)cc1N1CCOC1=O` | -5.762 | -7.147 |
| 25 | `CCN(CC)c1nc(C)cc(C(=O)Nc2cnn(CC)c2)n1` | -30.04 | -3.187 |
| 26 | `CCOc1c(F)cccc1C(=O)N(C)CCc1ccccn1` | 16.7 | -26.49 |
| 27 | `CN(C)c1cc(CNC(=O)Nc2ccc(F)cc2)ccn1` | -18.42 | -13.79 |
| 28 | `Cc1nn(Cn2ccc(C(=O)N3CCCC3)n2)c(C)c1Cl` | 6.713 | -12.66 |
| 29 | `COCc1nn(C(C)C)c2c1CCN(Cc1ccccn1)C2` | - | 14.75 |
| 30 | `CCN(CC1CCCO1)C(=O)Nc1cc(C(N)=O)ccc1OC` (stereo not given) | -2.627 | -10.14 |
| 31 | `[H][C@@]12COC[C@]1(c1nc(C)no1)CN(C(=O)C1CCOCC1)C2` | -0.7389 | - |
| 32 | `Cc1cc(=O)n2nc(Oc3ccc(Cl)c(C)c3)sc2n1` | 1.128 | -5.021 |
| 33 | `O=C(O)C(F)(F)F.O=C(O)C(F)(F)F.[H][C@]12C[C@@H](C(=O)NC)CO[C@@]1([H])CCN(Cc1ccc3ccccc3n1)C2` | -1.022 | - |
| 34 | `CN(Cc1cccnc1)Cc1cncc2c1CCN(Cc1ccoc1)C2` | - | -7.285 |
| 35 | `CN(CC(=O)NC1CC1)S(=O)(=O)c1ccc(F)cc1Cl` | 15.42 | -1.826 |
| 36 | `CN(CC(=O)N1CCCN(Cc2cscn2)CC1)c1cnccn1` | -1.001 | 9.687 |
| 37 | `CC(CNC(=O)c1cccnc1)Oc1ccc(F)cc1` (stereo not given) | 10.23 | -10.53 |
| 38 | `[H][C@]12CC[C@]([H])(CN(Cc3ccccc3)C1)N(C(=O)CC(F)(F)F)C2` | -1.095 | - |
| 39 | `CNCCN1C(=O)CC[C@H]2CN(c3ncc(F)cn3)CC[C@H]21` | - | -8.913 |
| 40 | `CC(C)N1CCC(Cc2cncc(-c3cc(F)ccc3C(=O)O)n2)CC1` | 15.41 | 4.175 |

2 of the entries, repeated:

CN(CC(=O)N1CCCN(Cc2cscn2)CC1)c1cnccn1 read A: -1.001%; B: 9.687%.
COc1nc2c(cc1C(=O)N1CCCC1c1ccccn1)CCC2 (stereo not given) read A: 3.376%; B: 2.194%.